No constants are given. Whether binding was seen depends on the method and setting. In cells and extracts the contact can be indirect. Binding can be weak; no strength is given. Sequences can lack the tags named with a protein.
Legend:
Assay in all cases: co-IP; GFP-tagged Gag version immunoprecipitated from yeast extract with polyclonal anti-GFP and Protein A-Sepharose, 50 mM Tris pH 7.5, 400 mM NaCl, 1% Triton X-100, 10% glycerol, 4 °C overnight; Bro1 or Vps23 detected by anti-HA or anti-Myc blot; also done with Δbro1 or Δvps23 cells (Fig. S12 A-C)
[1] = target: Gag(MA3*/ΔNCA)-GFP (expressed in yeast) (HIV-1)
[2] = target: Gag(V35E)-GFP (expressed in yeast) (HIV-1)
[3] = target: Gag-GFP (expressed in yeast) (HIV-1)

Measured: binding

B1: Vps23 (genomically epitope-tagged) (protein, UniProt P25604 1-385)
chain: MSANGKISVPEAVVNWLFKVIQPIYNDGRTTFHDSLALLDNFHSLRPRTRVFTHSDGTPQLLLSIYGTISTGEDGSSPHSIPVIMWVPSMYPVKPPFISINLENFDMNTISSSLPIQEYIDSNGWIALPILHCWDPAAMNLIMVVQELMSLLHEPPQDQAPSLPPKPNTQLQQEQNTPPLPPKPKSPHLKPPLPPPPPPQPASNALDLMDMDNTDISPTNHHEMLQNLQTVVNELYREDVDYVADKILTRQTVMQESIARFHEIIAIDKNHLRAVEQAIEQTMHSLNAQIDVLTANRAKVQQFSSTSHVDDEDVNSIAVAKTDGLNQLYNLVAQDYALTDTIECLSRMLHRGTIPLDTFVKQGRELARQQFLVRWHIQRITSPLS
binds: all assays above

B2: Bro1 (genomically epitope-tagged) (protein, UniProt P48582 1-844)
chain: MKPYLFDLKLKDTEKLDWKKGLSSYLKKSYGSSQWRTFYDEKATSELDHLRNNANGELAPSSLSEQNLKYYSFLEHLYFRLGSKGSRLKMDFTWYDAEYSSAQKGLKYTQHTLAFEKSCTLFNIAVIFTQIARENINEDYKNSIANLTKAFSCFEYLSENFLNSPSVDLQSENTRFLANICHAEAQELFVLKLLNDQISSKQYTLISKLSRATCNLFQKCHDFMKEIDDDVAIYGEPKWKTTVTCKLHFYKSLSAYYHGLHLEEENRVGEAIAFLDFSMQQLISSLPFKTWLVEFIDFDGFKETLEKKQKELIKDNDFIYHESVPAVVQVDSIKALDAIKSPTWEKILEPYMQDVANKCDSLYRGIIPLDVYEKESIYSEEKATLLRKQVEETETANLEYSSFIEFTNLPRLLSDLEKQFSDGNIFSNTDTQGQLMRDQIQTWCKFIQTNEFRDIEEQMNKIVFKRKQILEILSALPNDQKENVTKLKSSLVAASNSDEKLFACVKPHIVEINLLNDNGKIWKKFDEFNRNTPPQPSLLDIDDTKNDKILELLKQVKGHAEDLRTLKEERSRNLSELRDEINNDDITKLLIINKGKSDVELKDLFEVELEKFEPLSTRIEATIYKQSSMIDDIKAKLDEIFHLSNFKDKSSGEEKFLEDRKNFFDKLQEAVKSFSIFASDLPKGIEFYDSLFNMSRDLAERVRVAKQTEDSTANSPAPPLPPLDSKASVVGGPPLLPQKSAAFQSLSRQGLNLGDQFQNLKISAGSDLPQGPGIPPRTYEASPYAATPTMAAPPVPPKQSQEDMYDLRRRKAVENEERELQENPTSFYNRPSVFDENMYSKYSS
binds: all assays above

From article PMC7939435
